Measurements: article doi:10.1101/2023.12.15.571360
No constants are given. Whether binding was seen depends on the method and setting. Binding seen in cells or lysates may run through a third protein. Here binding means that the protein was enriched with, or labelled near, the bait; the list need not be complete. Where a sequence is shown, tags or fusion partners need not be part of it.

Sequences of proteins named here, by UniProt entry; tags and fusion partners are left off.
UniProt P63104: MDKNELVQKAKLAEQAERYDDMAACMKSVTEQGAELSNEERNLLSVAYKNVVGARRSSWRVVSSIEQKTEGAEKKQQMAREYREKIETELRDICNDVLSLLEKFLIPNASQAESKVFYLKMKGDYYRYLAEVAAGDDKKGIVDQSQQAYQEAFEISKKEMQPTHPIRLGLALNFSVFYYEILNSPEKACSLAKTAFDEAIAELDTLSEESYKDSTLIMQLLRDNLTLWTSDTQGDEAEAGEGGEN

Molecular target: GST-14-3-3ζ (UniProt P63104)
Experiment: affinity purification with mass spectrometry

Row | Binder | binding
1 | Amer2 (protein, UniProt Q8CCJ4 1-672, phosphorylated; sites not shown (Supplementary Table 2)) METGRSRGGGAAVSERGGGARAGVCGRQEQAGALAADMDSHCECAAETPAAEPPSGKINKAAFKLFKKRKSGGTMPSIFGVKNKGDGKSSGPTGMVRSRTHDGLAEVLVLEGSKKEEPPGGSDHSGARPIPGPPKPSGPGLGSLASSSVAKSHSFFSLLKKNGRSETGKGDHAEASKAGGKQKRGLKGIFSSMRWHRRDKRGKEEEEKAVRAAGPGNLVLPGSLTASLECVKEEPPRAARRPDSPGQDASRHAAGEPAGGEQAPASAESAPERICLEAGSPTGSGDQSSRGEDAEGHRREEKPGAALESGAGEVQAAEDASKTGDVPIKTVPLVDSEGGSGRASAVPDPSSVDPPSDPSADRICLMFSDVTSLKSFDSLTGCGDIIADPEEEAGPSCDKHVPGPGKPVLSKKNASVVAYQGGGEEMASPDQVDDTYLPEFWDMLSQTEDQGQGTQEGAAKAATASDIKLAPETSSDTRCGEAAKDMSSVKRRRLHRIPIESQQKEEPKHPEKEHQEGVPNSDEGYWDSTTPGPEEESISNSSSSKKVVIPRDSDSGDALCDLYVEPEASPATLPATEDPPCLSRLKPVSPGTITCPLRTPGSLLKDSKIPISIKHLSNLPSSHPVVHQQPARSEVPRTKIPVSKVLVRRVSNRGLAGTTIRAAACHDSAKKL | binds
2 | Bcr (protein, UniProt Q6PAJ1 1-1270, phosphorylated; sites not shown (Table 1, Supplementary Tables 1 and 2)) MVDSVGFAEAWRAQFPDSEPPRMELRSVGDIEQELERCKASIRRLEQEVNQERFRMIYLQTLLAKEKKSYDRQRWGFRRAAQPPDGAAEPRASAPRPPPAPADGADPAPVEESEARPDGEGSPSKGRSASARRPAAAASADRDDRGPPTSVAALRSNFEKIRKGPAQPGSADAEKPFYVNVEFHHERGLVKVNDKEVSDRISSLGSQAMQMERKKSQQSAGQGLGEAPRPHYRGRSSESSCGLDGDYEDAELNPRFLKDNLINANGGNRPPWPPLEYQPYQSIYVGGMMVEGEGKSPLLRSQSTSEQEKRLTWPRRSYSPRSFEDSGGGYTPDCSSNENLTSSEEDFSSGQSSRVSPSPTTYRMFRDKSRSPSQNSQQSFDSSSPPTPQCQKRHRQCQVVVSEATIVGVRKTGQIWPSDGDSTFQGEADSSFGTPPGYGCAADQAEEQRRHQDGLPYIDDSPSSSPHLSSKGRGSLASGALDPTKVSELDLEKGLEMRKWVLSGILASEETYLSHLEALLLPMKPLKAAATTSQPVLTSQQIETIFFKVPELYEIHKEFYDGLFPRVQQWSHQQRVGDLFQKLASQLGVYRAFVDNYGVAMETAEKCCQANAQFAEISENLRARSNKDVKDSTTKNSLETLLYKPVDRVTRSTLVLHDLLKHTPSSHPDHSLLQDALRISQNFLSSINEEITPRRQSMTVKKGEHRQLLKDSFMVELVEGARKLRHIFLFTDLLLCTKLKKQSGGKTQQYDCKWYIPLTDLSFQMVDELEALPNIPLVPDEELDALKIKISQIKSDIQREKRANKGSKVMERLRKKLSEQESLLLLMSPSMAFRVHSRNGKSYTFLISSDYERAEWRESIREQQKKCFKSFSLTSVELQMLTNSCVKLQTVHHIPLTINKEDDESPGLYGFLHVIVHSATGFKQSSNLYCTLEVDSFGYFVNKAKTRVYRDTTEPNWNEEFEIELEGSQTLRILCYEKCYNKMKMTKEDGESADKLMGKGQVQLDPQTLQDRDWQRTVIDMNGIEVKLSVKFTSREFSLKRMPSRKQTGVFGVKIAVVTKRERSKVPYIVRQCVEEIERRGMEEVGIYRVSGVATDIQALKAAFDVNNKDVSVMMSEMDVNAIAGTLKLYFRELPEPLFTDEFYPNFAEGIALSDPVAKESCMLNLLLSLPEANLLTFLFLLDHLKRVAEKETVNKMSLHNLATVFGPTLLRPSEKESKLPANPSQPITMTDSWSLEVMSQVQVLLYFLQLEAIPAPDSKRQSILFSTEV | binds
3 | Reep1 (protein, UniProt Q8BGH4 1-201, phosphorylated; sites not shown (Supplementary Table 2)) MVSWIISRLVVLIFGTLYPAYYSYKAVKSKDIKEYVKWMMYWIIFALFTTAETFTDIFLCWFPFYYELKIAFVAWLLSPYTKGSSLLYRKFVHPTLSSKEKEIDDCLVQAKDRSYDALVHFGKRGLNVAATAAVMAASKGQGALSERLRSFSMQDLTTIRGDGAPAPSGPPPPGTGRSSGKHSQPKMSRSASESAGSSGTA | binds
4 | Epn2 (protein, UniProt Q8CHU3 1-595, phosphorylated; sites not shown (Supplementary Table 2)) MTTSSIRRQMKNIVNNYSEAEIKVREATSNDPWGPSSSLMTEIADLTYNVVAFSEIMSMVWKRLNDHGKNWRHVYKALTLLDYLIKTGSERVAQQCRENIFAIQTLKDFQYIDRDGKDQGINVREKSKQLVALLKDEERLKVERVQALKTKERMAQVATGVGSNQITFGRGSSQPNLSTSYSEQEYGKAGGSPASYHGSTSPRVSSELEQARPQTSGEEELQLQLALAMSREVAEQSSESVQTARGSKEERLRRGDDLRLQMALEESRRDTVKVPKKKEAKACCKPGSHSQQTTLLDLMDALPSSGPVTQKTEPWSAGASANQTNPWGGTVAPSNITDPWPSFGTKPAASVDPWGVPTTASTQSVPKNSDPWAASQQPASNAGKTTDAWGAAKPSSASGSFELFSNFNGTVKDDFSEFDNLRTSKKPAESGASVPPQDSRTTSPDLFESQSLTSASSKPSSARKTPESFLGPNAALVNLDSLVTKPAPPAQSLNPFLAPGAAAPAPVNPFQVNQPQPLTLNQLRGSPVLGSSASFGSGPGVETVAPMTSVAPHSSVGASGSSLTPLGPTAMNMVGSVGIPPSAAQSTGTTNPFLL | binds
5 | Phactr1 (protein, UniProt Q2M3X8 1-580, phosphorylated; sites not shown (Supplementary Table 2)) MDYPKMDYFLDVESAHRLLDVESAQRFFYSQGAQARRATLLLPPTLMAASSEDDIDRRPIRRVRSKSDTPYLAEARISFNLGAAEEVERLAAMRSDSLVPGTHTPPIRRRSKFANLGRIFKPWKWRKKKSEKFKHTSAALERKISMRQSREELIKRGVLKEIYDKDGELSISNEDDSLENGQSLSSSQLSLPALSEMEPVPMPRDPCSYEVLQASDIMDGPDPGAPVKLPCLPVKLSPPLPPKKVLICMPVGGPELTLASYAAQKSSQQAVAQHHHTVLPSQMQHQLQYGSHGQHLPSSTGTLPMHPSGCRMIDELNKTLAMTMQRLESSEQRVPCSTSYHSSGLHSSDGITKAGPMGLPEIRQVPTVVIECDDNKENVPHEPDYEDSPCLYGREEEEEEEDEDDDASLYTSSLAMKVCRKDSLAIKLSNRPSKRELEEKNILPRQTDEERLELRQQIGTKLTRRLSQRPTAEELEQRNILKPRNEQEEQEEKREIKRRLTRKLSQRPTVEELRERKILIRFSDYVEVADAQDYDRRADKPWTRLTAADKAAIRKELNEFKSTEMEVHELSRHLTRFHRP | binds

The next lines start with the values.

Row | binding | Binder
6 | binds | Reep3 (protein, UniProt Q99KK1 1-254, phosphorylated; sites not shown (Supplementary Table 2)) MVSWMISRAVVLVFGMLYPAYYSYKAVKTKNVKEYVRWMMYWIVFALYTVIETVADQTLAWFPLYYELKIAFVIWLLSPYTRGASLIYRKFLHPLLSSKEREIDDYIVQAKERGYETMVNFGRQGLNLAAAAAVTAAVKSQGAITERLRSFSMHDLTAIQGDEPVGHRPYQTLPEAKRKGKQATESPAYGIPLKDGSEQTDEEAEGPFSDDEMVTHKALRRSQSMKSVKTIKGRKEVRYGSLKYKVKKRPQVYF
7 | binds | Rims1 (protein, UniProt Q99NE5 1-1463, phosphorylated; sites not shown (Table 1, Supplementary Tables 1 and 2)) MSSAVGPRGPRPPTVPPPMQELPDLSHLTEEERNIIMAVMDRQKEEEEKEEAMLKCVVRDMAKPAACKTPRNAESQPHQPPLNIFRCVCVPRKPSSEEGGPDRNWRLHQQFESYKEQVRKIGEEARRYQGEHKDDAPTCGICHKTKFADGCGHLCSYCRTKFCARCGGRVSLRSNNEDKVVMWVCNLCRKQQEILTKSGAWFFGSGPQQPSQDGTLSDTATGAGSEVPREKKARLQERSRSQTPLSTAAVSSQDTASHGAPLDRNKGAEPSQQALGPEQKQASRSRSEPPRERKKAPGLSEQNGKGGQKSERKRVPKSVVQPGEGTADERERKERRETRRLEKGRSQDYPDRLEKREDGRVAEDEKQRKEEEGVSTPEYTSCEDVELESESVSEKGDLDYWLDPATWHSRETSPISSHPVTWQPSKEGDRLIGRVILNKRTTMPKESGALLGLKVVGGKMTDLGRLGAFITKVKKGSLADVVGHLRAGDEVLEWNGKPLPGATNEEVYNIILESKSEPQVEIIVSRPIGDIPRIPESSHPPLESSSSSFESQKMERPSISVISPTSPGALKDAPQVLPGQLSVKLWYDKVGHQLIVNVLQATDLPPRVDGRPRNPYVKMYFLPDRSDKSKRRTKTVKKLLEPKWNQTFVYSHVHRRDFRERMLEITVWDQPRVQDEESEFLGEILIELETALLDDEPHWYKLQTHDESSLPLPQPSPFMPRRHIHGESSSKKLQRSQRISDSDISDYEVDDGIGVVPPVGYRASARESKATTLTVPEQQRTTHHRSRSVSPHRGDDQGRPRSRLPNVPLQRSLDEIHPTRRSRSPTRHHDASRSLADHRSRHAESQYSSEPDSELLMLPRAKRGRSAECLHMTSELQPSLDRARSASTNCLRPDTSLHSPERERGRWSPSLARRRPASPRIQIQHASPENDRHSRKSERSSIQKQSRKGTASDADRVLPPCLSRRGYAIPRATDQPVIRGKHTTRSRSSEHSSIRTLCSMHHLAPGGSAPPSPLLTRTHRQGSPTQSPPADTSFGSRRGRQLPQVPVRSGSIEQASLVVEERTRQMKMKVHRFKQTTGSGSSQELDHEQYSKYNIHKDQYRSCDNASAKSSDSDVSDVSAISRASSTSRLSSTSFMSEQSERPRGRISSFTPKMQGRRMGTSGRAIIKSTSVSGEIYTLEHNDGSQSDTAVGTVGAGGKKRRSSLSAKVVAIVSRRSRSTSQLSQTESGHKKLKSTIQRSTETGMAAEMRKMVRQPSRESTDGSINSYSSEGNLIFPGVRVGPDSQFSDFLDGLGPAQLVGRQTLATPAMGDIQIGMEDKKGQLEVEVIRARSLTQKPGSKSTPAPYVKVYLLENGACIAKKKTRIARKTLDPLYQQSLVFDESPQGKVLQVIVWGDYGRMDHKCFMGVAQILLEELDLSSMVIGWYKLFPPSSLVDPTLTPLTRRASQSSLESSSGPPCIRS
8 | binds | Shisa7 (protein, UniProt Q8C3Q5 23-558, phosphorylated; sites not shown (Supplementary Table 2)) RPSNDTSSVAPGPLPALLAHLRRLTGALAGGGSAAGTSANATKTSPASGTGAAARAPPPAELCHGYYDVMGQYDATFNCSTGSYRFCCGTCHYRFCCEHRHMRLAQASCSNYDTPRWATTPPPLAGGAGGAGGAGGGPGPGQAGWLEGGRAGGAGGRGGEGPGGSTAYVVCGVISFALAVGVGAKVAFSKASRAPRAHREINVPRALVDILRHQAGPATRPDRARSSSLTPGLGGPDSMAPRTPKNLYNTMKPSNLDNLHYNVNSPKHHAATLDWRAMPPPSPSLHYSTLSCSRSFHNLSHLPPSYEAAVKSELNRYSSLKRLAEKDLDEAYLKRRQLEMPRGTLPLHALRRPGTGGGYRMDGWGGPEELGLAPAPNPRRVMSQEHLLGDGSRASRYEFTLPRARLVSQEHLLLSSPEALRQSREHLLSPPRSPALPPDPTTRASLAASHSNLLLGPGGPPTPLHGLPPSGLHAHHHHALHGSPQPAWMSDAGGGGGTLARRPPFQRQGTLEQLQFIPGHHLPQHLRTASKNEVTV
